According to PubChem BioAssay AID1347423 (Functional Genomics Laboratory (NCATS/FGL), 2020):
Screen size: about 52,000 sequences; about 210 (0.4%) were called active.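 Rule for the calls: active = gene whose silencing raises cell survival under the drug, median off-target-corrected z-score across its silencing RNAs 2 or more; inactive = the rest.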 The list shows a part of the results.

experiment: Resistance to Poly (ADP-Ribose) Polymerase inhibitor: Gene Identification via Genome-wide siRNA Screen; settings: mouse BRCA2 R2336H ES cells, olaparib, CellTiter-Glo viability; hits give high values
Procedure, shortened: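 Genome-wide siRNA screen (3 siRNAs/gene, 20 nM) in mouse ES cells carrying hypomorphic BRCA2 R2336H; olaparib 500 nM added 48 h post-transfection, CellTiter-Glo viability 72 h later. Normalized to plate-median negative control; MAD z-scores, gene median, seed-adjusted.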

Row | Sequence | z-score
1 | GGAAGAGGUAAAUGACAACTT against Slco6b1 | inactive: 0.642
2 | GCAGCAUGCCUAAAUUUGGTT against Fyb | inactive: 1.06
3 | GCUAAAUACAGGAGAAAACTT against Rhox10 | inactive: -0.868
4 | GCGAUACCGUGCCAUGUUUTT against 1110033C18Rik | inactive: 1.46
5 | UGCUGGUAGACCUAGUAGCTT against Olfr1137 | inactive: -1.5
6 | GGACAGAGUCAUUUGAUGUTT against 1110019C08Rik | inactive: -0.0114
7 | GGAUAUCACCUACCUUCGATT against Dusp15 | inactive: 0.323
8 | GGCAGUCUACUUUACACGGTT against Prdm1 | inactive: 2.21
9 | GCCGGAAUACUGGAUACCGTT against Slitl2 | inactive: -0.235
10 | GGAACUCUGUUCUAUUCCUTT against Chek2 | inactive: -0.057
11 | GGAAAAACUACCAAGAGGATT against Dscr5 | inactive: 1.3
12 | CCCAGAGGUUCCCGUCAAUTT against Hmgb3 | active: 1.9
13 | GGCCCUUCAAGUGUGAUCUTT against Zfp319 | inactive: 0.423
14 | GGUGCUAUACGAAUACUUGTT against Stxbp5l | inactive: 0.0514
15 | GGGUGUAGUUUUUGAGGAGTT against LOC226169 | inactive: -0.159
16 | GGCACCAUCUCCAUAAAAATT against Foxa3 | inactive: 0.00362
17 | GGGAUAAGCUUUACGAGCGTT against Purb | inactive: -0.412
18 | GCUGGUGAUCGUAGCCAAGTT against D17Wsu104e | inactive: -1.3
19 | GGUGUAUCAAGAAACUAACTT against Eif2c3 | inactive: -0.972
20 | GGUGAAAGUCAACUUUGACTT against Scn5a | inactive: 1.96
21 | GUGGGAAAUCAGUAUUUCCTT against AI467606 | inactive: -0.616
22 | GCCAAUACAGACCACCUGGTT against Rln3 | inactive: 0.754
23 | CCUUAUCCUGGGAAAAUCATT against Olfr266 | inactive: 0.168
24 | GGAAGUGUCUUUCAAGCCCTT against 1700029J07Rik | inactive: 0.72
25 | GGUUUCAGGAAAGAAACAATT against Epb4.2 | inactive: 1.15
26 | GGCCAUGAAGAAGAUGUACTT against Stard10 | inactive: -0.531
27 | GGAGAGAAAGAAACCUAUUTT against Fmn2 | inactive: -1.02
28 | GGAUUGGAAAUGGCCACAGTT against 3000004N20Rik | inactive: 0.0252
29 | GCUUAAGCAGUGAUAAUAATT against B230317F23Rik | inactive: -0.761

Quoted at random: two records from the list
Row | Sequence | z-score
20 | GGUGAAAGUCAACUUUGACTT against Scn5a | inactive: 1.96
11 | GGAAAAACUACCAAGAGGATT against Dscr5 | inactive: 1.3
